In the supplement of paper PMC10849652:
The list shows a part of the results.

By UniProt entry, the sequences of proteins in these tests, tags left out. Where a name states a change or a piece, a line headed by the entry shows the natural chain unless it says otherwise.
UniProt Q8N9V7: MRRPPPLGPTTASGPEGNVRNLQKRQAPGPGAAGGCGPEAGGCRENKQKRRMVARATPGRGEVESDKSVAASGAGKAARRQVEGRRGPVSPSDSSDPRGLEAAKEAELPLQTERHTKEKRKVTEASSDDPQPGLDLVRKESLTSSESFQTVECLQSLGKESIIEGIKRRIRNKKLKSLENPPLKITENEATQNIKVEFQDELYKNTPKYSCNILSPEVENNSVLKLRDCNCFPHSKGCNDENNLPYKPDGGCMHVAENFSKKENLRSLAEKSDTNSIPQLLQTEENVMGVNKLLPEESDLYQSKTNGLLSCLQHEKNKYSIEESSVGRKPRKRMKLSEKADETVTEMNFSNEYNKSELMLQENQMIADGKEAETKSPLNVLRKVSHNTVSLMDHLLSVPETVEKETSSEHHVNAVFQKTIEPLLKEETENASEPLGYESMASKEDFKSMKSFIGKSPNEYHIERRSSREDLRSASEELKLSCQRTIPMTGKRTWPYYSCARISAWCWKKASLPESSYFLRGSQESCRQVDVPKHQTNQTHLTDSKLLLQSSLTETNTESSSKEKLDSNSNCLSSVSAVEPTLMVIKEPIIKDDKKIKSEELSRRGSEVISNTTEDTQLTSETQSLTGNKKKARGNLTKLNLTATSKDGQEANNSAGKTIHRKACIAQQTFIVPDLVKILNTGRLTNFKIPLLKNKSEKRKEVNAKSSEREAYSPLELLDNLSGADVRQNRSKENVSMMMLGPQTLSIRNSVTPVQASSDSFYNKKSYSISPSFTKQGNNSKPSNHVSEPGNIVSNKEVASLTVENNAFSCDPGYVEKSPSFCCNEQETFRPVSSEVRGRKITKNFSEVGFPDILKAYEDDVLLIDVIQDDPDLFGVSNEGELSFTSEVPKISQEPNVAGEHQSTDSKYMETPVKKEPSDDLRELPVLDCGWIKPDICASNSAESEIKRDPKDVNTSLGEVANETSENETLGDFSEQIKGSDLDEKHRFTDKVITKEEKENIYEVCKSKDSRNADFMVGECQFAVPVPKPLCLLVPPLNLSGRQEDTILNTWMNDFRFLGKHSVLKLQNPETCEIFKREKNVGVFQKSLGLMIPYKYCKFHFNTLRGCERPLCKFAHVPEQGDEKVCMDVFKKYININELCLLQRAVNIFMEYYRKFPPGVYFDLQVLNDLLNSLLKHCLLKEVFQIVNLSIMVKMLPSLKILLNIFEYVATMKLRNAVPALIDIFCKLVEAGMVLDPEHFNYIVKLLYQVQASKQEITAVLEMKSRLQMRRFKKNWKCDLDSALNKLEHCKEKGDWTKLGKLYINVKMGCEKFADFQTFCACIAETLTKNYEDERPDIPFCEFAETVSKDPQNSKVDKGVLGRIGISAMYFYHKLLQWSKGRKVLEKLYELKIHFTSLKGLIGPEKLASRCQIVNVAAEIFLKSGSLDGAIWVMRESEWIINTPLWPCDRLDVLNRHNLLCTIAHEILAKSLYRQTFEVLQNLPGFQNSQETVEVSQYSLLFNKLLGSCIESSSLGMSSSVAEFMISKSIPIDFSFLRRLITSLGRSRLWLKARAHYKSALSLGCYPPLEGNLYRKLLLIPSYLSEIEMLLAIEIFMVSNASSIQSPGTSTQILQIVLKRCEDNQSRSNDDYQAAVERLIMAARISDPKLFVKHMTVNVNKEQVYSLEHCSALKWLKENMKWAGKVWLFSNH
UniProt Q9HCN3: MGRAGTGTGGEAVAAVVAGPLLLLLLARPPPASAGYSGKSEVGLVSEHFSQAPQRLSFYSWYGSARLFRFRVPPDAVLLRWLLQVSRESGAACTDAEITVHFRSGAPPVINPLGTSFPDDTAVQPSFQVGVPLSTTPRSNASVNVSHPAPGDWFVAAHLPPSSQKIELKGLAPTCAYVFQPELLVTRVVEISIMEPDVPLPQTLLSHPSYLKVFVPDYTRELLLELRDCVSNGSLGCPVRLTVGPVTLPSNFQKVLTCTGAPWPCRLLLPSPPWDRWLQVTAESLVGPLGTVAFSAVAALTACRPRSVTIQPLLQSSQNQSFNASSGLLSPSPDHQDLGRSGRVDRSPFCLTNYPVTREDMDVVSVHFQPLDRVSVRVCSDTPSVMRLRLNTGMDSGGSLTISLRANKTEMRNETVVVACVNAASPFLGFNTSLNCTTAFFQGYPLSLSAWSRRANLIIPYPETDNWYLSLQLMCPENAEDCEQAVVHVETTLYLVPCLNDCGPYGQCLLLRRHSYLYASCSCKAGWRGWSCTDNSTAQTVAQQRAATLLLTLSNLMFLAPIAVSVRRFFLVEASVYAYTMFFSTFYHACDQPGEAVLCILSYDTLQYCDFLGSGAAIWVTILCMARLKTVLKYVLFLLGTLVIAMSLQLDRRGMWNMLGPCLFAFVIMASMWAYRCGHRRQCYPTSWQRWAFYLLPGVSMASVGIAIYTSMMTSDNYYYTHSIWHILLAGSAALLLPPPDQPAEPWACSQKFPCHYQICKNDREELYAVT
UniProt Q96A57: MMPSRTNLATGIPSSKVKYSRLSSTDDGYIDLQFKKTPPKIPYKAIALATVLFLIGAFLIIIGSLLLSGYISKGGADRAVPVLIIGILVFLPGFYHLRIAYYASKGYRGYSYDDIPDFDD
UniProt P06753, whole entry, looked up: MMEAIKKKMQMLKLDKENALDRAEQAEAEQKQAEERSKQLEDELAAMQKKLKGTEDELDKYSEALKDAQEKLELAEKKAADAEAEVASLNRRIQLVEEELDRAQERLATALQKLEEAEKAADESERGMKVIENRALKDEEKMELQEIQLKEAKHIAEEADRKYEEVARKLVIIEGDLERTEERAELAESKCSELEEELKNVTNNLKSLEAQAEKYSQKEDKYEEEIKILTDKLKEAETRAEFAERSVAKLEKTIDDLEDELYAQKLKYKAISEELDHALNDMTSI
UniProt Q96B49: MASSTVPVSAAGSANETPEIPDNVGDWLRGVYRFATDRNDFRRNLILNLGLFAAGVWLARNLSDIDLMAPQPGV
UniProt Q71RG4: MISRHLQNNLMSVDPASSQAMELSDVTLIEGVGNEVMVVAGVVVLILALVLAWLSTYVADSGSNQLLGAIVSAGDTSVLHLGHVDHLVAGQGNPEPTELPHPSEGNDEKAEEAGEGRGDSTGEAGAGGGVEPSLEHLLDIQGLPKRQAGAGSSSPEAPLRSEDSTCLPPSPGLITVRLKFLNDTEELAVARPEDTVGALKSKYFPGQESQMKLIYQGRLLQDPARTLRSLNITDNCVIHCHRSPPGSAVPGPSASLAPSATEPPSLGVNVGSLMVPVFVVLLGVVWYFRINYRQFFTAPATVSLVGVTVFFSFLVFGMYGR
UniProt O60784, whole entry, looked up: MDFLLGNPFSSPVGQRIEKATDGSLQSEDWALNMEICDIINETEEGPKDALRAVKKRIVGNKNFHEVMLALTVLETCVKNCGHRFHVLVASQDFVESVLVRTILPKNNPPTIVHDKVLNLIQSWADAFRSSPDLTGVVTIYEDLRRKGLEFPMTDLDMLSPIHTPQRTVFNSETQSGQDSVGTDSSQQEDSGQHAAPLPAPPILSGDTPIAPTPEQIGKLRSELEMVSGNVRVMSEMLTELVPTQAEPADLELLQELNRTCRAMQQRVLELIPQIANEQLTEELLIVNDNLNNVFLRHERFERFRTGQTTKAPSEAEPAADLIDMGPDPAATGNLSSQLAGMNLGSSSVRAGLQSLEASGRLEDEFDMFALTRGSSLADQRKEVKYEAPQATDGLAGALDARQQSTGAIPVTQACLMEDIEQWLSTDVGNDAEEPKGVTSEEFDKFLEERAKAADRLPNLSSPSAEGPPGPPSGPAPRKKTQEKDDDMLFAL
UniProt Q9NWD8: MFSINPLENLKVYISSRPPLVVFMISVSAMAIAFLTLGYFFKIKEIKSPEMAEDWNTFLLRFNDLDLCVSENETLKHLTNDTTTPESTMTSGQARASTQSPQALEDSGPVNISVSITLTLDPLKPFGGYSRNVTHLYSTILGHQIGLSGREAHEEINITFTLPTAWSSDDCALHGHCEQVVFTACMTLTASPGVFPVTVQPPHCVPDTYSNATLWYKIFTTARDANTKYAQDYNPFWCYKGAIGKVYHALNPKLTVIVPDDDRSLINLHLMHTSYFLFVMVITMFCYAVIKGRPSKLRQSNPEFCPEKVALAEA
UniProt Q6ZT21: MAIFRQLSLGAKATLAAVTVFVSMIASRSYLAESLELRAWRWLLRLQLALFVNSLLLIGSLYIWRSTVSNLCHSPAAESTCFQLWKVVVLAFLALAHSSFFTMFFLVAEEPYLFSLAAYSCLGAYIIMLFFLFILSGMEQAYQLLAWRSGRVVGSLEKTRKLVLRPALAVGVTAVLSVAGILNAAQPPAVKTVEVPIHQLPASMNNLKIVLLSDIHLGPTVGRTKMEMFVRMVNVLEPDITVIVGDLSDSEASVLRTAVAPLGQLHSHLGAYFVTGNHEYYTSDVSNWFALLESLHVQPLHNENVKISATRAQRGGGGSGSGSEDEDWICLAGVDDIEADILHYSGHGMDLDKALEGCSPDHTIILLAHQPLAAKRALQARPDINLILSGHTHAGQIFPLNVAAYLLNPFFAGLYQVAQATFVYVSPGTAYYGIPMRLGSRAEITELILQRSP
UniProt Q13595: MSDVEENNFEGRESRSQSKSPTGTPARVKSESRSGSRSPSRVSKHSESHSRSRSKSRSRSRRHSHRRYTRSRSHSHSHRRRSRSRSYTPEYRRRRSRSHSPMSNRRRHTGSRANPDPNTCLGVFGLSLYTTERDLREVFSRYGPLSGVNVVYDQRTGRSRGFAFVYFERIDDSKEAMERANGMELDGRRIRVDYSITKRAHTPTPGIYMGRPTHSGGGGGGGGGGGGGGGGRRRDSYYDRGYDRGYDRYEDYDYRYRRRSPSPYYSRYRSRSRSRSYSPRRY
UniProt Q8NFZ5: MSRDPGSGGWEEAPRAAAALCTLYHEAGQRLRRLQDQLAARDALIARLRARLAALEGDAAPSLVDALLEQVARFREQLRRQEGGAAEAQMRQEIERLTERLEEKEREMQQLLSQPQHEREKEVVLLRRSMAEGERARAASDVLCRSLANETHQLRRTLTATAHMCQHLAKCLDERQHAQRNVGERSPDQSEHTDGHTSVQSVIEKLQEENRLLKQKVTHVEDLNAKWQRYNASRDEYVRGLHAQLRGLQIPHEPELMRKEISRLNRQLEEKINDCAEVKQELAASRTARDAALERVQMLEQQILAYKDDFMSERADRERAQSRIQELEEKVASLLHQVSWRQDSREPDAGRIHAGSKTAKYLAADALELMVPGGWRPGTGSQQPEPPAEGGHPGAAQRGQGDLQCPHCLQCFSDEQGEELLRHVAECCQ
UniProt P02585, whole entry, looked up: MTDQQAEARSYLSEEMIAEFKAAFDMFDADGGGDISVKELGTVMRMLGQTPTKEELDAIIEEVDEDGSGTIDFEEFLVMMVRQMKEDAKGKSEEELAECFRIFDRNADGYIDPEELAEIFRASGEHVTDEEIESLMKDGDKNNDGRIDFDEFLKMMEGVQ
UniProt Q9BVT8: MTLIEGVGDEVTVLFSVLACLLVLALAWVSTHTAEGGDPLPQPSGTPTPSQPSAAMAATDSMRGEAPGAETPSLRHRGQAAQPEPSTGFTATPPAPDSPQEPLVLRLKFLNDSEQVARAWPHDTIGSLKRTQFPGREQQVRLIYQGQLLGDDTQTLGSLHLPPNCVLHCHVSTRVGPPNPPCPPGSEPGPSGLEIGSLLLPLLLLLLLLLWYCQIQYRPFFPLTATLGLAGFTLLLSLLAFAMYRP
UniProt Q9NZR1: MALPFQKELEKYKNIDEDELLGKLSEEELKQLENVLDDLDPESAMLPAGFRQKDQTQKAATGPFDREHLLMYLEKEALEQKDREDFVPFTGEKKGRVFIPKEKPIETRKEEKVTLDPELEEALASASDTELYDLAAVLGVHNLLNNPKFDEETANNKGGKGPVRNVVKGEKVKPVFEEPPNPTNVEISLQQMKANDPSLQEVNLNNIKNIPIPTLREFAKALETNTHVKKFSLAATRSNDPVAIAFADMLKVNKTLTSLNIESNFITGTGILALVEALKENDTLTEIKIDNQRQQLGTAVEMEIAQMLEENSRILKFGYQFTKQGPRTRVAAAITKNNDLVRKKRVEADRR
UniProt Q9H1E5: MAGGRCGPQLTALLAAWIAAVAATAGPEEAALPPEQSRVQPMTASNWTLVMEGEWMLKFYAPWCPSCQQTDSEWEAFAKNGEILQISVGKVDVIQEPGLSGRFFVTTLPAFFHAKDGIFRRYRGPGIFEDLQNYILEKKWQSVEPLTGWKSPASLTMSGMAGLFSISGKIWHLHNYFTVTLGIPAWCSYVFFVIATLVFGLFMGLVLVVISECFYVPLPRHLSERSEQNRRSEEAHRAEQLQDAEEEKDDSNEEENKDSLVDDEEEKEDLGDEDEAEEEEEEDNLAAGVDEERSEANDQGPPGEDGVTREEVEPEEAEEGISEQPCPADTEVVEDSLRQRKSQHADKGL
UniProt Q9NS69: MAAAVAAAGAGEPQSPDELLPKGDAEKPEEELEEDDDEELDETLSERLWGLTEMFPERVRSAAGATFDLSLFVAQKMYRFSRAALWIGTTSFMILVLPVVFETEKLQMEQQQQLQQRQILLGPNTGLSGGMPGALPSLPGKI

What follows are targets tested with C1CCN(C1)C(=O)NC2=CC=CC(=C2)NC3=NC=C(C(=N3)NCCC4=CN=CN4)Br (assay: log2 fold change, soluble protein after heating vs DMSO (PISA); higher = thermal stabilisation; K562 lysate, 10 uM; active = over 0.2 and 3.5 SD of the protein, either way, in both replicates (recomputed)).
Procedure, shortened: (§1)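 K562 pellets were dounce-homogenised in PBS pH 7.4 containing 1 mM MgCl2, and the crude extract, at 1 mg/mL protein, was exposed to 10 μM compound for 30 min. Aliquots were heated for 3 min across 48°C-58°C, pooled, brought to 0.5% NP-40 at 4°C and spun at 21,000xg for 90 min, with the supernatant taken as soluble protein. TMTpro 16plex LC-MS/MS with equalised channel sums quantified that protein. Values are log-two fold changes in thermal stability relative to solvent controls, taken from duplicates.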

log2 fold change, inactive:
TRA2B (UniProt P62995) 0.03
TNIP1 (UniProt Q15025) 0.001
TP53RK (UniProt Q96S44) 0.014
TOPAZ1 (UniProt Q8N9V7) -0.188
TPCN1 isoform 3 (UniProt Q9ULQ1) -0.008
TPBG (UniProt Q13641) -0.034
TMEM19 (UniProt Q96HH6) -0.027
TNRC6A (UniProt Q8NDV7) -0.024
TPM1 (UniProt H7BYY1) 0.012
TPK1 (UniProt Q9H3S4) 0.037
TMEM8A (UniProt Q9HCN3) 0.043
TMEM230 isoform 2 (UniProt Q96A57) -0.011
TPM3 (UniProt P06753) 0.035
TOMM6 (UniProt Q96B49) -0.108
TMUB2 (UniProt Q71RG4) -0.036
TOM1 (UniProt O60784) -0.008
TMEM248 (UniProt Q9NWD8) -0.009
TMPPE (UniProt Q6ZT21) 0
TRA2A (UniProt Q13595) 0.083
TNIP2 (UniProt Q8NFZ5) -0.12
TNNC2 (UniProt P02585) 0.061
TNKS (UniProt O95271) -0.061
TNIK (UniProt C9J338) -0.101
TMEM94 isoform 2 (UniProt Q12767) -0.036
TMUB1 (UniProt Q9BVT8) -0.012
TMOD2 (UniProt Q9NZR1) -0.026
TPRG1L (UniProt Q5T0D9) 0.019
TMX4 (UniProt Q9H1E5) -0.028
TPM3 isoform 3 (UniProt P06753) 0.084
TOMM22 (UniProt Q9NS69) 0.017

What follows are targets tested with C1CN(CCC1(CC2=CC=C(C=C2)Cl)N)C3=NC=NC4=C3C=CN4 in the same assay as above.
Procedure, shortened: as §1

log2 fold change, inactive:
TRA2B (UniProt P62995) -0.032
TNIP1 (UniProt Q15025) -0.012
TP53RK (UniProt Q96S44) -0.022
TOPAZ1 (UniProt Q8N9V7) -0.16
TPCN1 isoform 3 (UniProt Q9ULQ1) 0.02
TPBG (UniProt Q13641) 0.092
TMEM19 (UniProt Q96HH6) -0.018
TNRC6A (UniProt Q8NDV7) 0.127
TPM1 (UniProt H7BYY1) -0.02
TPK1 (UniProt Q9H3S4) 0.075
TMEM8A (UniProt Q9HCN3) 0.001
TMEM230 isoform 2 (UniProt Q96A57) 0.04
TPM3 (UniProt P06753) -0.021
TOMM6 (UniProt Q96B49) -0.015
TMUB2 (UniProt Q71RG4) 0.008
TOM1 (UniProt O60784) 0.111
TMEM248 (UniProt Q9NWD8) 0.191
TMPPE (UniProt Q6ZT21) 0.028
TRA2A (UniProt Q13595) -0.234
TNIP2 (UniProt Q8NFZ5) 0.156
TNNC2 (UniProt P02585) 0.071
TNKS (UniProt O95271) -0.02
TNIK (UniProt C9J338) 0.064
TMEM94 isoform 2 (UniProt Q12767) 0.14
TMUB1 (UniProt Q9BVT8) -0.034
TMOD2 (UniProt Q9NZR1) -0.018
TPRG1L (UniProt Q5T0D9) -0.081
TMX4 (UniProt Q9H1E5) -0.005
TPM3 isoform 3 (UniProt P06753) -0.068
TOMM22 (UniProt Q9NS69) 0.037
